According to publication PMC5871853, “First insights of peptidoglycan amidation in Gram-positive bacteria - the high-resolution crystal structure of Staphylococcus aureus glutamine amidotransferase GatD” (Scientific Reports, 2018):
No constants are given. Whether binding was seen depends on the method and setting.

Chains of the proteins cited; added tags and fusions are not shown.
UniProt A0A0H2WZ38: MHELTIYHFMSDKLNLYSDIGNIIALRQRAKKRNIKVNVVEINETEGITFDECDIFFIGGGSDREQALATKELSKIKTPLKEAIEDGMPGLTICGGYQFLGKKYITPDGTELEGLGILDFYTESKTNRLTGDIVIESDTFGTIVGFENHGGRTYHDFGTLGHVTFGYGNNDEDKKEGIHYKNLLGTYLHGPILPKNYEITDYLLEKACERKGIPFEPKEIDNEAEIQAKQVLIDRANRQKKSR

Target: S. aureus GatD (crystallised construct, from pOPINF) (Staphylococcus aureus strain COL)
Test: crystal structure; GatD alone, space group P2(1)2(1)2(1), 2 molecules in the asymmetric unit, 1.85 Å; the dimer was judged by visual inspection and PISA software; both purified

Q: For “S. aureus GatD (crystallised construct, from pOPINF) (from UniProt A0A0H2WZ38 1-243) (enzyme)”, which binding is on record?
A: no binding
